Source: paper PMC7840056

How the values were obtained:
[1] = biological target: NiuE cytoplasmic NTP-binding protein fused to the T18 fragment (pUT18) (Helicobacter pylori (strain B128)); test: two-hybrid; Bacterial Adenylate Cyclase Two-Hybrid (BACTH) in E. coli BTH101; SlyD fused to T25, Niu proteins fused to T18 (pUT18); LB with IPTG 10^-3 M overnight at 30°C; ß-galactosidase activity in Miller units
[2] = biological target: NiuB1 periplasmic nickel-binding protein fused to the T18 fragment (pUT18) (Helicobacter pylori (strain B128)); test: as above

B1: SlyD wild type fused to the T25 fragment of Bordetella pertussis adenylate cyclase (pNKT25) (protein, UniProt O25748 1-185)
chain: MQNHDLESIKQAALIEYEVREQGSSIVLDSNISKEPLEFIIGTNQIIAGLEKAVLKAQIGEWEEVVIAPEEAYGVYESSYLQEVPRDQFEGIELEKGMSVFGQTEDNQTIQAIIKDFSATHVMVDYNHPLAGKTLAFRFKVLGFREVSEEEILASHHGGGTGCCGGHGGHGGKKGGGCGCSCSHG
binding [1]: no binding
binding [2]: no binding

These are yes or no findings as the source states them, for the method shown. Tags and fused reporters may be left off the sequences shown.
